Reference: paper PMC10681713
For at least one entry, the source does not settle the construct or the ends of the probe. The comparison behind a weaker result is the experiment's own reference, which may not be listed here.

Chains of the proteins cited; added tags and fusions are not shown. Chains listed by the source or under a name are the forms on record and can include a tag or linker.
CX3 (RAD51C-XRCC3) (Homo sapiens), one chain, as listed by the source, chain 2 of 2: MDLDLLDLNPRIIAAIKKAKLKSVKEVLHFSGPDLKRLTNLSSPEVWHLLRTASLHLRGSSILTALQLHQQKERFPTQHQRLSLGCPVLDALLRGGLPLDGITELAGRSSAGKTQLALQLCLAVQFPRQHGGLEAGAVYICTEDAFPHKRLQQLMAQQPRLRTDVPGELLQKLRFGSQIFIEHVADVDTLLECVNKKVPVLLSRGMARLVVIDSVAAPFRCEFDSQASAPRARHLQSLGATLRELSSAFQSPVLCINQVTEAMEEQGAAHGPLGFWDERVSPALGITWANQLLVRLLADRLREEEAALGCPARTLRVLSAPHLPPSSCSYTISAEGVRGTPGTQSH
CX3 (RAD51C-XRCC3) (Homo sapiens), one chain, as listed by the source, chain 1 of 2: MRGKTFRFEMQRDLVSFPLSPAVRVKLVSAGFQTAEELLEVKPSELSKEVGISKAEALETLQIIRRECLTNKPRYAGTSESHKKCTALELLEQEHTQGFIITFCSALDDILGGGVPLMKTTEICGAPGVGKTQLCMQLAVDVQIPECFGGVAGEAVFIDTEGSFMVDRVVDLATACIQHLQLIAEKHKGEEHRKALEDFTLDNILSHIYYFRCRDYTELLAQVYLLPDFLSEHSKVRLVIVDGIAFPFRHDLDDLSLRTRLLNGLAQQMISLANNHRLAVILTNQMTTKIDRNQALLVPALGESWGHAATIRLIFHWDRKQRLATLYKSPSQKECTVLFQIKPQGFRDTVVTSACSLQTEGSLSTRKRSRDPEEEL

System: CX3 (RAD51C-XRCC3) (Homo sapiens)
Assay: EMSA
Conditions: 1 mM ATP, 58 nM DNA, 37 °C, 10 min, paralogs: 50 mM KCl, 0.8% agarose gel, RAD51: 100 mM KCl, 2 mM ATP, 6% TBE-PAGE, recombinant protein, protein details: N-terminal His6-Flag on RAD51C, label: 5' Cy3 on oligo 13

Sequence: TTAGAGCTTAATTGCTGAATCTGGTGCTGTGGGTGAACCTGCAGGTGGGCAAAGA (double strand) [dsDNA 55 bp (oligo 13 + oligo 14)]
- binding result: binds more weakly
